Some of the results follow.
Assays:
Experiment in all cases: log2 fold change, soluble protein after heating vs DMSO (PISA); higher = thermal stabilisation; K562 lysate, 10 uM; active = over 0.2 and 3.5 SD of the protein, either way, in both replicates (recomputed)
vemurafenib = compound: CCCS(=O)(=O)Nc1ccc(F)c(C(=O)c2c[nH]c3ncc(-c4ccc(Cl)cc4)cc23)c1F [vemurafenib]
Procedure, shortened: (§1)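 Soluble protein was defined as the supernatant remaining after 21,000xg for 90 min, following pooling of heated aliquots and adjustment to 0.5% NP-40 at 4°C. Before that, crude K562 extract at 1 mg/mL protein in PBS pH 7.4 with 1 mM MgCl2 was treated with 10 μM compound for 30 min and heated for 3 min across 48°C-58°C. Quantification used TMTpro 16plex LC-MS/MS with channel sums equalised, and values are log-two fold changes in thermal stability relative to solvent controls from duplicates.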

Protein sequences, listed by entry. Tags and fused reporters are not part of them. Lines headed by an entry give the natural chain unless they say otherwise; changes in a name come on top.
UniProt Q8IWL3: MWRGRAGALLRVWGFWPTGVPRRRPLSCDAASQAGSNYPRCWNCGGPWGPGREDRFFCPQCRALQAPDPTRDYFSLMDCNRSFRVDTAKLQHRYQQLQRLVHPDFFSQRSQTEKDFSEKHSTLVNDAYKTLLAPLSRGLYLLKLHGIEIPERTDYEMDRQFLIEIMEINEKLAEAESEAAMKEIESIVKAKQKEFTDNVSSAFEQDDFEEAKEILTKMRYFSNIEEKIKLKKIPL
UniProt Q9NQE9: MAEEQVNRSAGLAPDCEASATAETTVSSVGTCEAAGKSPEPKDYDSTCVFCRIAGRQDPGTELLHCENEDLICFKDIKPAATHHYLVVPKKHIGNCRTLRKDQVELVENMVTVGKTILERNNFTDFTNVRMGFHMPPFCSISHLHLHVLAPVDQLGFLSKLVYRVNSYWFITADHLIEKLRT
UniProt O95757: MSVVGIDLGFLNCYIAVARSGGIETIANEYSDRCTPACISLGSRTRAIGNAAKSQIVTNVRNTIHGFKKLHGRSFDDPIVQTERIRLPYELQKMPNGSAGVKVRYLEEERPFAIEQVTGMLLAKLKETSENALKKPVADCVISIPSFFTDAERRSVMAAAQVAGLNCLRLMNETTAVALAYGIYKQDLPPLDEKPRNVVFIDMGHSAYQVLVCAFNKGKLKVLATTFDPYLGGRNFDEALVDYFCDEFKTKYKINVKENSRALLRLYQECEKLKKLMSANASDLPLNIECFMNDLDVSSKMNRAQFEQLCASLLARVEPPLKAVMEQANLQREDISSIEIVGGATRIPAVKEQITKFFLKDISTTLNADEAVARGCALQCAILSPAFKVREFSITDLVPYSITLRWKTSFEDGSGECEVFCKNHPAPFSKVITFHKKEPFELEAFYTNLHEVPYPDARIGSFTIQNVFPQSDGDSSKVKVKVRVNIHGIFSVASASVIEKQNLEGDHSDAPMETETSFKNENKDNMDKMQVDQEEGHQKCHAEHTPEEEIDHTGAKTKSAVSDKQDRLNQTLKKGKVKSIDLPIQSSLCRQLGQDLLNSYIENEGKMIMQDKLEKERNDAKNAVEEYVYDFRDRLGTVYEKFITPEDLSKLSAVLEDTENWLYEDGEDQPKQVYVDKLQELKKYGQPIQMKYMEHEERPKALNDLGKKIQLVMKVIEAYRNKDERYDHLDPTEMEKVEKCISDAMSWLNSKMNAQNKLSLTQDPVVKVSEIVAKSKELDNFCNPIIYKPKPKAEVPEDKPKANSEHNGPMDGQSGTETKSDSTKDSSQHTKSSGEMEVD
UniProt O43390: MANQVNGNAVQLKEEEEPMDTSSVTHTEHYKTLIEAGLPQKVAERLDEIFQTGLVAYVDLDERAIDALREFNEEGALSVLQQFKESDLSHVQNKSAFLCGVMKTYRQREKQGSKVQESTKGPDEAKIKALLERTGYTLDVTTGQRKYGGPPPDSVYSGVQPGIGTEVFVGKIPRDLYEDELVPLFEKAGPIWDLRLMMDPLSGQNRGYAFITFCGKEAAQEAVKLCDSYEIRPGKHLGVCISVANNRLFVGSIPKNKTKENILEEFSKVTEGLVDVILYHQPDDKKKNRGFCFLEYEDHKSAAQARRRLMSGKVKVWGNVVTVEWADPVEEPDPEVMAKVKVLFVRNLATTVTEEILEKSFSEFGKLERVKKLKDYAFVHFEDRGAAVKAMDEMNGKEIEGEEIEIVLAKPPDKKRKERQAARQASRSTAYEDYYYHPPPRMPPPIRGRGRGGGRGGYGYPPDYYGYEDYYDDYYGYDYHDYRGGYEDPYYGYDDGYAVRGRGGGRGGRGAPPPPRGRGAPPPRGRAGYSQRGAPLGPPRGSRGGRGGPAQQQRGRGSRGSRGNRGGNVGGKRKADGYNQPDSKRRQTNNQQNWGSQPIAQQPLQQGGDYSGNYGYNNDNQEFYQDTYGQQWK
UniProt Q58FG1, whole entry, looked up: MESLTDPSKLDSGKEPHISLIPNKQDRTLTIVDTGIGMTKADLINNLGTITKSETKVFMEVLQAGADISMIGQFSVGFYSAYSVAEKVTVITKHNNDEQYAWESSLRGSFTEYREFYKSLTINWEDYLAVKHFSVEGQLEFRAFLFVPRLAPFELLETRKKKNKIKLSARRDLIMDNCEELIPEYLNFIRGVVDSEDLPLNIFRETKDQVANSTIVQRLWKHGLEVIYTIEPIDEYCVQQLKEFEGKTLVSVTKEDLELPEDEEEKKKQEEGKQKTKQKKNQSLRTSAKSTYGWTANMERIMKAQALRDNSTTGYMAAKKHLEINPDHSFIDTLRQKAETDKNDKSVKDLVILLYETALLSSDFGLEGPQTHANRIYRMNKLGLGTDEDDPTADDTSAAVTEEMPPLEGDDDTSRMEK
UniProt O00291: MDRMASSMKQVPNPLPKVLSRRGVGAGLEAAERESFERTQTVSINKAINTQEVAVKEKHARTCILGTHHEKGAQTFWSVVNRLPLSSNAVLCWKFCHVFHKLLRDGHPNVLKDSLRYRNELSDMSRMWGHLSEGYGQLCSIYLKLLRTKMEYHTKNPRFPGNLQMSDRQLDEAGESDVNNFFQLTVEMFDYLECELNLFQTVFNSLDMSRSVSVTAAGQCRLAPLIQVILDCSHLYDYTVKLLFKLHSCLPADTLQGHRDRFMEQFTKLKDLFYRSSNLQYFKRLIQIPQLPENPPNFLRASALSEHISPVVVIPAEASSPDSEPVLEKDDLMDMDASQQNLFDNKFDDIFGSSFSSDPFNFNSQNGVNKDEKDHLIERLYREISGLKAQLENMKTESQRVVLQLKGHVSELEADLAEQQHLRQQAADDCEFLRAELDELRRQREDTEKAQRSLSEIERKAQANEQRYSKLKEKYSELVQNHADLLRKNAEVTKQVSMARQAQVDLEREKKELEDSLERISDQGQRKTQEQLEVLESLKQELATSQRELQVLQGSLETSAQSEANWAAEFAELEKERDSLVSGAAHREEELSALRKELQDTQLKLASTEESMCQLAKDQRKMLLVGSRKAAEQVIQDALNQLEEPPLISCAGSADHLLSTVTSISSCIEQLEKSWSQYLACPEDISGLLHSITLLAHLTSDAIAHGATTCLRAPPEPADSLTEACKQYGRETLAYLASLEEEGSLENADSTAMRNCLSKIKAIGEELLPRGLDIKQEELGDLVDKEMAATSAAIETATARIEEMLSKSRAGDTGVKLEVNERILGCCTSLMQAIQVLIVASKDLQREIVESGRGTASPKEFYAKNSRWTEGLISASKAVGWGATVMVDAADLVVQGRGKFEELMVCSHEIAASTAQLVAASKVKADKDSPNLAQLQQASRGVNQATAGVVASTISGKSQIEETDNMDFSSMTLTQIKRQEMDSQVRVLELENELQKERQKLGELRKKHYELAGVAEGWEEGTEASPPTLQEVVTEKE
UniProt P17066, whole entry, looked up: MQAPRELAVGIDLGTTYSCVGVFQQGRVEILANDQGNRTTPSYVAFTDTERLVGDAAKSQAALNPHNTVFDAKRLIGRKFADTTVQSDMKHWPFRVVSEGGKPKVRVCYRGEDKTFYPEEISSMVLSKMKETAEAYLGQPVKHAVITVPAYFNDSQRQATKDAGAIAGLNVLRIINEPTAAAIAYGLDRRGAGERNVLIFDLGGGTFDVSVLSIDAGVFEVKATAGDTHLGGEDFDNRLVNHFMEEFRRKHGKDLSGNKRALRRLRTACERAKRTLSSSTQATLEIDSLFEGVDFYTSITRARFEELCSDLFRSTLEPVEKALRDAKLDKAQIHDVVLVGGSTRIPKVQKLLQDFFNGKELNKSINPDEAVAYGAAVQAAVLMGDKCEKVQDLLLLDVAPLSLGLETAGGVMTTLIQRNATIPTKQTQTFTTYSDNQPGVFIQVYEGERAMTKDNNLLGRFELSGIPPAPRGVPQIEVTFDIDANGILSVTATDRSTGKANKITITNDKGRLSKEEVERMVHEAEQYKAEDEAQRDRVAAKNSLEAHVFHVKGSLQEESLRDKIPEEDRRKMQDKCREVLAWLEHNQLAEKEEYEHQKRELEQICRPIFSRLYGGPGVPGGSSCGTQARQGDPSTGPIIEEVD
UniProt O75146: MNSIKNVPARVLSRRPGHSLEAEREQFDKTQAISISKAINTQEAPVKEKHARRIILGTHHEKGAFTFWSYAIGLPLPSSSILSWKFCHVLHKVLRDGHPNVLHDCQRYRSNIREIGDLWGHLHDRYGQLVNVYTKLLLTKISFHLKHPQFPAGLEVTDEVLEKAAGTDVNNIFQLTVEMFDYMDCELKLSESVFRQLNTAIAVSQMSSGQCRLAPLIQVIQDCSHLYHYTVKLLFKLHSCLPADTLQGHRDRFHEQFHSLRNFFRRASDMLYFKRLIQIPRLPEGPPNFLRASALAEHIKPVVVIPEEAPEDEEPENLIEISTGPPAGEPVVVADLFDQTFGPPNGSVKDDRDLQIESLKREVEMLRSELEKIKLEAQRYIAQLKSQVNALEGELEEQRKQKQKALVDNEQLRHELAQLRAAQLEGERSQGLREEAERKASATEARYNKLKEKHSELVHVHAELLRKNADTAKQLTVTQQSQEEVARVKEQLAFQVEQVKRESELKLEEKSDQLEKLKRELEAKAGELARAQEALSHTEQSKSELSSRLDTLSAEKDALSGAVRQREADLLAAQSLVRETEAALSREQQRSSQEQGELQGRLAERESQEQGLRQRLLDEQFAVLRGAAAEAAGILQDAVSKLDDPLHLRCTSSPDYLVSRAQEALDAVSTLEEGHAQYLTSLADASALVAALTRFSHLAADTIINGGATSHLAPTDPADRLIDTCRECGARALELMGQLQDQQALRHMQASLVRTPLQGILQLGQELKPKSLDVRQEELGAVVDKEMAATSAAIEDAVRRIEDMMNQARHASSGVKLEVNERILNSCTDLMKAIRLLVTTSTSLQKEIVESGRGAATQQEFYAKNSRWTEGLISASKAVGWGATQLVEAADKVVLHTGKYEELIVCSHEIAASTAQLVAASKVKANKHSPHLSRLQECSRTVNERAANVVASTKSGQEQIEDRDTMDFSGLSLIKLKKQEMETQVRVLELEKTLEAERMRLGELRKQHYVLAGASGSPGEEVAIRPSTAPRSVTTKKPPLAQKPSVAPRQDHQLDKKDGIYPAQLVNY
UniProt Q58FF7, whole entry, looked up: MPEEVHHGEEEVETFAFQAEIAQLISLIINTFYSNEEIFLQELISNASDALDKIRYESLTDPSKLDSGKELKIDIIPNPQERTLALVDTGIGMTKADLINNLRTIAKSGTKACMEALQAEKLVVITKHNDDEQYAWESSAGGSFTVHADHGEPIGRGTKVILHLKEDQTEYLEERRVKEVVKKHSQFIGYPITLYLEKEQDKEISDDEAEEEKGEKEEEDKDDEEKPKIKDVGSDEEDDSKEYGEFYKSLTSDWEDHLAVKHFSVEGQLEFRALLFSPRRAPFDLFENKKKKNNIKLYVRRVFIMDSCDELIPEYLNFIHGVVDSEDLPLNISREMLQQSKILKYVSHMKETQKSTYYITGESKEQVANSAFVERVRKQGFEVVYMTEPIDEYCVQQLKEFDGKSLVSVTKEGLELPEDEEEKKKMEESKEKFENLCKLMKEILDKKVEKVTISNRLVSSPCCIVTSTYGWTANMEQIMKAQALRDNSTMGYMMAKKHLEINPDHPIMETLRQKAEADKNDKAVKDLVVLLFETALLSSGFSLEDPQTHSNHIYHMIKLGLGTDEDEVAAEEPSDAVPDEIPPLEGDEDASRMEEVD
UniProt P14866: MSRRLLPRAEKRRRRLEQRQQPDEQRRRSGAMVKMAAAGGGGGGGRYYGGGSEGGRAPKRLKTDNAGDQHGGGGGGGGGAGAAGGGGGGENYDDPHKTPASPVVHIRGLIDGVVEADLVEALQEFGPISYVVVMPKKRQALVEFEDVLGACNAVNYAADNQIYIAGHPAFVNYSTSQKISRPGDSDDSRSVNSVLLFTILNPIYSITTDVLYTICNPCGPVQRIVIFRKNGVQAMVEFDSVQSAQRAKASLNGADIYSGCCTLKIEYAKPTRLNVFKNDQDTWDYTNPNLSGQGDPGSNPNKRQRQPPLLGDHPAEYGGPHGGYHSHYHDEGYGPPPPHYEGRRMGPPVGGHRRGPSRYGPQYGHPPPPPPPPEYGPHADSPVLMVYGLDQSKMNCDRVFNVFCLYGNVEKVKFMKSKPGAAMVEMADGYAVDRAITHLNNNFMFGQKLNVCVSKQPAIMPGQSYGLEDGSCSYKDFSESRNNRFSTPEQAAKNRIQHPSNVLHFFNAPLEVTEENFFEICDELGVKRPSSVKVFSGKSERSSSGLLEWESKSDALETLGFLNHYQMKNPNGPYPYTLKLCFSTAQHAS

[1] = compound: CCCS(=O)(=O)Nc1ccc(F)c(C(=O)c2c[nH]c3ncc(Cl)cc23)c1F
Procedure, shortened: as §1

barasertib = compound: CCN(CCCOc1ccc2c(Nc3cc(CC(=O)Nc4cccc(F)c4)[nH]n3)ncnc2c1)CCOP(=O)(O)O [barasertib]
Procedure, shortened: as §1

[2] = compound: CC[C@@H]1C(=O)N(C)c2cnc(Nc3ccc(C(=O)NC4CCN(C)CC4)cc3OC)nc2N1C1CCCC1
Procedure, shortened: as §1

volasertib = compound: CC[C@@H]1C(=O)N(C)c2cnc(Nc3ccc(C(=O)N[C@H]4CC[C@H](N5CCN(CC6CC6)CC5)CC4)cc3OC)nc2N1C(C)C [volasertib]
Procedure, shortened: as §1

[3] = compound: CCn1c(C(=O)N(C2CC2)C2CC2)cc2c3c(ncn3C)c(Nc3cc(C)n(C)n3)nc21
Procedure, shortened: as §1

[4] = compound: CCn1cc(-c2ccnc3[nH]c(-c4cccc(CN(C)C)c4)cc23)c(-c2ccc(NC(=O)N(C)C)cc2)n1
Procedure, shortened: as §1

[5] = compound: CN1CCC(CNc2ccc3ncc(-c4cccc(OC(F)(F)F)c4)n3n2)CC1
Procedure, shortened: as §1

saracatinib = compound: CN1CCN(CCOc2cc(OC3CCOCC3)c3c(Nc4c(Cl)ccc5c4OCO5)ncnc3c2)CC1 [saracatinib]
Procedure, shortened: as §1

sotrastaurin = compound: CN1CCN(c2nc(C3=C(c4c[nH]c5ccccc45)C(=O)NC3=O)c3ccccc3n2)CC1 [sotrastaurin]
Procedure, shortened: as §1

Measured: log2 fold change

HSCB (UniProt Q8IWL3)
inactive: vemurafenib 0.053 | [1] 0.137 | barasertib 0.036 | [2] -0.028 | volasertib 0.057 | [3] 0.009 | [4] -0.044 | [5] -0.069 | saracatinib -0.008 | sotrastaurin -0.026

HINT3 (UniProt Q9NQE9)
inactive: vemurafenib 0.024 | [1] -0.028 | barasertib 0.025 | [2] 0.055 | volasertib -0.048 | [3] 0.01 | [4] 0.012 | [5] -0.032 | saracatinib 0.011 | sotrastaurin 0.02

HSPA4L (UniProt O95757)
inactive: vemurafenib 0.003 | [1] 0.007 | barasertib 0.011 | [2] -0.014 | volasertib -0.039 | [3] -0.003 | [4] -0.017 | [5] 0.028 | saracatinib 0.011 | sotrastaurin 0.005

HNRNPR isoform 2 (UniProt O43390)
inactive: vemurafenib -0.005 | [1] 0.023 | barasertib -0.031 | [2] -0.053 | volasertib -0.011 | [3] 0.034 | [4] -0.016 | [5] -0.03 | saracatinib -0.039 | sotrastaurin 0.011

HSP90AA4P (UniProt Q58FG1)
inactive: vemurafenib -0.002 | [1] 0 | barasertib 0.377 | [2] 0.006 | volasertib 0.005 | [3] -0.076 | [4] 0.26 | [5] 0.041 | saracatinib -0.03 | sotrastaurin 0.033

HIP1 (UniProt O00291)
inactive: vemurafenib 0.037 | [1] 0.032 | barasertib 0.007 | [2] 0.003 | volasertib 0.008 | [3] 0.007 | [4] -0.055 | [5] -0.025 | saracatinib 0.006 | sotrastaurin 0.026

HSPA6 (UniProt P17066)
inactive: vemurafenib -0.006 | [1] 0.017 | barasertib -0.03 | [2] 0.05 | volasertib -0.06 | [3] -0.053 | [4] -0.085 | [5] 0.051 | saracatinib -0.712 | sotrastaurin 0.027

HIP1R (UniProt O75146)
inactive: vemurafenib 0.019 | [1] 0.024 | barasertib 0.026 | [2] 0.018 | volasertib -0.006 | [3] 0 | [4] 0.053 | [5] -0.01 | saracatinib 0.025 | sotrastaurin 0.001

Quoted from above (two entries):
HNRNPR isoform 2 (UniProt O43390)
inactive: vemurafenib -0.005 | [1] 0.023 | barasertib -0.031 | [2] -0.053 | volasertib -0.011 | [3] 0.034 | [4] -0.016 | [5] -0.03 | saracatinib -0.039 | sotrastaurin 0.011

HSP90AA4P (UniProt Q58FG1)
inactive: vemurafenib -0.002 | [1] 0 | barasertib 0.377 | [2] 0.006 | volasertib 0.005 | [3] -0.076 | [4] 0.26 | [5] 0.041 | saracatinib -0.03 | sotrastaurin 0.033

More results follow:

HSP90AB3P (UniProt Q58FF7)
inactive: vemurafenib -0.019 | [1] 0.043 | barasertib -0.006 | [2] 0.034 | volasertib 0.003 | [3] 0.021 | [4] 0.023 | [5] -0.021 | saracatinib -0.079 | sotrastaurin -0.012

HNRNPR (UniProt O43390)
inactive: vemurafenib -0.03 | [1] 0.078 | barasertib -0.043 | [2] -0.082 | volasertib -0.027 | [3] -0.021 | [4] -0.214 | [5] 0.062 | saracatinib 0.001 | sotrastaurin 0.081

HNRNPL (UniProt P14866)
inactive: vemurafenib 0.01 | [1] 0.023 | barasertib 0.021 | [2] -0.052 | volasertib -0.047 | [3] 0.061 | [4] -0.012 | [5] -0.056 | saracatinib 0.017 | sotrastaurin 0.023

HNRNPK isoform 2 (UniProt P61978)
inactive: vemurafenib 0.018 | [1] 0.02 | barasertib -0.046 | [2] 0.007 | volasertib -0.013 | [3] -0.002 | [4] 0.011 | [5] 0.006 | saracatinib -0.023 | sotrastaurin -0.015
